No constants are given. Whether binding was seen depends on the method and setting. Binding seen in cells or lysates may run through a third protein. Some results given as binding are weak or reduced against the parent protein; the word gives no strength.
Legend:
[1] = biological target: T1, fatty acid binding protein 1 (FABP1) (human) (UniProt P07148); assay: co-IP; L02 cells transfected 48 h, lysed in Pierce IP Lysis Buffer; supernatant incubated overnight with 4 µg FABP1 antibody, magnetic beads 3 h; SDS-PAGE and immunoblot
T1 sequence: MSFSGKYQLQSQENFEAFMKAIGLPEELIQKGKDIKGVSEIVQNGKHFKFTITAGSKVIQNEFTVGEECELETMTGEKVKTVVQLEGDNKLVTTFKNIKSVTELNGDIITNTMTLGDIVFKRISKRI

Sequences of proteins named here, by UniProt entry; tags and fusion partners are left off.
UniProt P08263: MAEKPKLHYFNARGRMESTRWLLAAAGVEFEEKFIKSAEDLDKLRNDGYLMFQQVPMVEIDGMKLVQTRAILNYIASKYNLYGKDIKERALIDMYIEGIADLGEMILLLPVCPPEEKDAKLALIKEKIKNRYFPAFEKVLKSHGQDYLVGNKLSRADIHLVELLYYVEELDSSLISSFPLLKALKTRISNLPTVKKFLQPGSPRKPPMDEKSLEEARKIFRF

[2] = biological target: glutathione S-transferase alpha 1 (GSTA1), His-tagged (human) (UniProt P08263); assay: co-IP; L02 cells transfected 48 h, lysed in Pierce IP Lysis Buffer; lysate pre-cleared with Protein A/G beads and non-specific IgG, then His-tag antibody and beads overnight at 4 °C; immunoblot (the paper's 'His pull-down')

## glutathione S-transferase alpha 1 (GSTA1), His-tagged (from UniProt P08263 1-222) (enzyme)
[1]
  binding: binds

B1: fatty acid binding protein 1 (FABP1) (protein, UniProt P07148 1-127)
chain: MSFSGKYQLQSQENFEAFMKAIGLPEELIQKGKDIKGVSEIVQNGKHFKFTITAGSKVIQNEFTVGEECELETMTGEKVKTVVQLEGDNKLVTTFKNIKSVTELNGDIITNTMTLGDIVFKRISKRI
[2]
  binding: binds

Source: paper PMC11120891
